Measured values published in PubChem BioAssay AID1487 (National Center for Advancing Translational Sciences (NCATS), 2009).
About 25 (0.01%) of roughly 200,000 compounds were called active. Inconclusive means that the source gave no clear call. Such entries were picked first, then a sample of the others. Calls follow the shape of the dose curve; as a rule, active = well fitted inhibition curve with a large enough effect in the signal ratio, with a control signal flat (not every such curve was filed as active); inconclusive = small, poorly fitted or top-dose-only effect, or effect the other way, or a change in a side signal; inactive = flat fitted curve, though single readings scatter; the % refers to the signal ratio. Potencies beside an inconclusive call are fits to weak or partial responses and may not hold up.

assay: qHTS Assay for Modulators of Lamin A Splicing; conditions: HeLa LMNA splicing GFP/RFP minigene ratio, 48 h; ratio change, negative = inhibition: at 46.1 µM (top of the series) unless noted
Outline: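 S3 HeLa stable clones carrying a lamin A-EGFP splicing minigene plus DsRed2 were seeded at 600 cells/well in Opti-MEM with 2% FBS, pin-dosed and incubated 48 h at 37°C. Acumen cytometry (488 nm) gave the GFP/RFP total-intensity ratio.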
% is scaled to controls: 0 for no effect and ±100 for the full control effect; potency is read from the fitted curve at half-maximal effect.

| SMILES | Potency | ratio change, negative = inhibition |
| --- | --- | --- |
| CCC1=NN(C(=O)c2ccc(C)cc2)C(O)(c2ccc(Br)cc2)C1 (centres undefined) | inconclusive: 35.5 µM [falling, single point] | – |
| CCOc1ccc2nc(N(Cc3cccnc3)C(=O)c3cccs3)sc2c1 | – | inconclusive: 10.1% [at 46 µM] |
| O=C(O)CCCCCNc1ncnc2ccc(Br)cc12 | – | inconclusive: 15.8% [at 46 µM] |
| COc1cccc(N2CCN(C(=O)c3cnc4c(-c5ccc(F)cc5)c(C)nn4c3C)CC2)c1 | – | inactive |
| COc1ccc(C)c2sc(NC(=O)c3ccc(S(=O)(=O)N4CCOCC4)cc3)nc12 | – | inconclusive: 19.1% [at 46 µM] |
| CCCCCOc1ccc(/C=c2\sc3nc(=O)c(-c4ccccc4)nn3c2=O)cc1OC | – | inactive |
| CCn1nnnc1SCC(=O)Nc1ccc2c(c1)OCO2 | – | inactive |
| C1=C(c2ccccc2)CCN(c2nc3ccccc3n3cnnc23)C1 | – | inactive |
| Cc1cc(S(=O)(=O)Nc2ccc3ccccc3c2)c(C)s1 | – | inconclusive: -34.5% |
| COc1cccc(CNC(=O)c2sc3nc[nH]c(=O)c3c2C)c1 | – | inconclusive: -0.607% [at 46 µM] |
| Cc1ccc(CN2CN(S(=O)(=O)c3cccs3)c3nc4ccccc4nc32)cc1 | – | inconclusive: -31.5% |
| CCc1ccccc1Nc1cc(C(=O)NCc2ccccn2)c2ccccc2n1 | – | inconclusive: 29.3% [at 9.22 µM] |
| COc1ccc(NC(=O)Cn2ccn(-c3ccc(F)c(F)c3)c(=O)c2=O)cc1Cl | – | inconclusive: 59.1% [at 46 µM] |
| N#C/C(=C\c1ccco1)Sc1nc2ccccc2s1 | – | inconclusive: -24.6% |
| Cc1ccc(N2CCN(C(=O)c3c(C)oc4ncn(C)c(=O)c34)CC2)c(C)c1 | – | inconclusive: -3.06% [at 46 µM] |
| CCN(CC)c1ccc(NC(=O)COCc2cc(-c3ccc4c(c3)OCO4)on2)c(C)c1 | – | inconclusive: -8.23% [at 46 µM] |
| CC(N=Cc1cccc(O)c1O)c1ccccc1 (centres undefined) | – | inconclusive: 1.74% |
| Cc1ccc(-c2csc(N/N=C/C=C/c3ccccc3)n2)cc1 | – | inactive |
| FC(F)(Cl)c1nnc2ccc(Cl)nn12 | – | inconclusive: -34.2% [at 46 µM] |
| CCOc1ccc(N=CC2=C(O)CC(c3ccco3)CC2=O)cc1 (centres undefined) | – | inactive |

As entered above.
`CCC1=NN(C(=O)c2ccc(C)cc2)C(O)(c2ccc(Br)cc2)C1` (centres undefined) | Potency: inconclusive: 35.5 µM [falling, single point]
`Cc1cc(S(=O)(=O)Nc2ccc3ccccc3c2)c(C)s1` | ratio change, negative = inhibition: inconclusive: -34.5%
`COc1cccc(N2CCN(C(=O)c3cnc4c(-c5ccc(F)cc5)c(C)nn4c3C)CC2)c1` | ratio change, negative = inhibition: inactive

The list continues:

| SMILES | Potency | ratio change, negative = inhibition |
| --- | --- | --- |
| O=C(NC(=S)Nc1ccc2cn[nH]c2c1)c1ccccc1 | – | inactive |
| CC(C)C[C@H](NC(=O)[C@@H](O)[C@H](N)Cc1ccccc1)C(=O)O | inconclusive: 4.47 µM [activator, partial curve, poor fit] | – |
| Nc1nc(SCc2ccc(Cl)c(Cl)c2)n[nH]1 | – | inactive |
| CC(Oc1ccc(-c2ccccc2)c(F)c1)c1ccn(S(=O)(=O)c2ccc(F)cc2)n1 (centres undefined) | inconclusive: 22.4 µM [falling, single point] | – |
| CC(=O)NCCn1c(SCc2cc(=O)n3cc(Cl)ccc3n2)nc2ccccc2c1=O | – | inconclusive: 4.03% |
| CCS(=O)(=O)c1ccc(C(=O)N2CCN(c3nc4c(OC)ccc(C)c4s3)CC2)cc1 | – | inconclusive: -5.3% [at 46 µM] |
| Nc1ccc(O)c2c1C(=O)c1ccccc1C2=O | – | inconclusive: -27.7% |
| O=C(CSc1nc2c([nH]c3ccccc32)c(=O)n1-c1ccccc1)Nc1cccc(C(F)(F)F)c1 | – | inactive |
| CC(C)CC(NC(=O)C(NC(=O)OC(C)(C)C)C(C)C)C(=O)NC(CCC(=O)OCc1ccccc1)C(N)=O (centres undefined) | – | inconclusive: 38.6% [at 46 µM] |
| CC(=O)NS(=O)(=O)c1cccnc1Nc1cccc(Cl)c1 | – | inactive |
| O=C(CC1C(=O)NCCN1Cc1ccc(-c2ccccc2)cc1)NCc1ccncc1 (centres undefined) | – | inactive |
| OC(COCCOc1ccc(Br)cc1)CN1CCN(Cc2ccccc2)CC1 (centres undefined) | – | inconclusive: -54.9% |
| COc1ccc(S(=O)(=O)Nc2nc(C(F)(F)F)cs2)cc1 | – | inactive |
| COC(=O)Cc1c[nH]c2cccc(OCC(O)CN(Cc3ccc([N+](=O)[O-])cc3)C(C)(C)C)c12 (centres undefined) | inconclusive: 35.5 µM [cytotoxic, single point] | – |
| COC(=O)c1ccc(C(=S)N2CCOCC2)cc1 | – | inactive |
| COC(=O)[C@H]1[C@H]2C[C@@H]3c4[nH]c5cc(OC)ccc5c4CCN3C[C@H]2C[C@@H](OC(=O)c2cc(OC)c(OC)c(OC)c2)[C@@H]1OC | inconclusive: 17.8 µM [cytotoxic, single point] | – |
| NC(=O)c1ccc(N=Cc2ccc([N+](=O)[O-])s2)cc1 | inconclusive: 35.5 µM [inhibitor, single point] | – |
| Cc1ccc(S(=O)(=O)N2CCC(=O)N(CCOC(=O)Nc3ccc(C)c(C)c3)CC2)cc1 | – | inconclusive: -45.9% |
| CN(C)c1ccc(/C=N/NC(=O)c2ccc(Cn3cc(Br)cn3)o2)cc1 | – | inconclusive: 5.55% |
